This passage reports binding results from PMC9712368.

By UniProt entry, the sequences of proteins in these tests, tags left out.
UniProt Q09472: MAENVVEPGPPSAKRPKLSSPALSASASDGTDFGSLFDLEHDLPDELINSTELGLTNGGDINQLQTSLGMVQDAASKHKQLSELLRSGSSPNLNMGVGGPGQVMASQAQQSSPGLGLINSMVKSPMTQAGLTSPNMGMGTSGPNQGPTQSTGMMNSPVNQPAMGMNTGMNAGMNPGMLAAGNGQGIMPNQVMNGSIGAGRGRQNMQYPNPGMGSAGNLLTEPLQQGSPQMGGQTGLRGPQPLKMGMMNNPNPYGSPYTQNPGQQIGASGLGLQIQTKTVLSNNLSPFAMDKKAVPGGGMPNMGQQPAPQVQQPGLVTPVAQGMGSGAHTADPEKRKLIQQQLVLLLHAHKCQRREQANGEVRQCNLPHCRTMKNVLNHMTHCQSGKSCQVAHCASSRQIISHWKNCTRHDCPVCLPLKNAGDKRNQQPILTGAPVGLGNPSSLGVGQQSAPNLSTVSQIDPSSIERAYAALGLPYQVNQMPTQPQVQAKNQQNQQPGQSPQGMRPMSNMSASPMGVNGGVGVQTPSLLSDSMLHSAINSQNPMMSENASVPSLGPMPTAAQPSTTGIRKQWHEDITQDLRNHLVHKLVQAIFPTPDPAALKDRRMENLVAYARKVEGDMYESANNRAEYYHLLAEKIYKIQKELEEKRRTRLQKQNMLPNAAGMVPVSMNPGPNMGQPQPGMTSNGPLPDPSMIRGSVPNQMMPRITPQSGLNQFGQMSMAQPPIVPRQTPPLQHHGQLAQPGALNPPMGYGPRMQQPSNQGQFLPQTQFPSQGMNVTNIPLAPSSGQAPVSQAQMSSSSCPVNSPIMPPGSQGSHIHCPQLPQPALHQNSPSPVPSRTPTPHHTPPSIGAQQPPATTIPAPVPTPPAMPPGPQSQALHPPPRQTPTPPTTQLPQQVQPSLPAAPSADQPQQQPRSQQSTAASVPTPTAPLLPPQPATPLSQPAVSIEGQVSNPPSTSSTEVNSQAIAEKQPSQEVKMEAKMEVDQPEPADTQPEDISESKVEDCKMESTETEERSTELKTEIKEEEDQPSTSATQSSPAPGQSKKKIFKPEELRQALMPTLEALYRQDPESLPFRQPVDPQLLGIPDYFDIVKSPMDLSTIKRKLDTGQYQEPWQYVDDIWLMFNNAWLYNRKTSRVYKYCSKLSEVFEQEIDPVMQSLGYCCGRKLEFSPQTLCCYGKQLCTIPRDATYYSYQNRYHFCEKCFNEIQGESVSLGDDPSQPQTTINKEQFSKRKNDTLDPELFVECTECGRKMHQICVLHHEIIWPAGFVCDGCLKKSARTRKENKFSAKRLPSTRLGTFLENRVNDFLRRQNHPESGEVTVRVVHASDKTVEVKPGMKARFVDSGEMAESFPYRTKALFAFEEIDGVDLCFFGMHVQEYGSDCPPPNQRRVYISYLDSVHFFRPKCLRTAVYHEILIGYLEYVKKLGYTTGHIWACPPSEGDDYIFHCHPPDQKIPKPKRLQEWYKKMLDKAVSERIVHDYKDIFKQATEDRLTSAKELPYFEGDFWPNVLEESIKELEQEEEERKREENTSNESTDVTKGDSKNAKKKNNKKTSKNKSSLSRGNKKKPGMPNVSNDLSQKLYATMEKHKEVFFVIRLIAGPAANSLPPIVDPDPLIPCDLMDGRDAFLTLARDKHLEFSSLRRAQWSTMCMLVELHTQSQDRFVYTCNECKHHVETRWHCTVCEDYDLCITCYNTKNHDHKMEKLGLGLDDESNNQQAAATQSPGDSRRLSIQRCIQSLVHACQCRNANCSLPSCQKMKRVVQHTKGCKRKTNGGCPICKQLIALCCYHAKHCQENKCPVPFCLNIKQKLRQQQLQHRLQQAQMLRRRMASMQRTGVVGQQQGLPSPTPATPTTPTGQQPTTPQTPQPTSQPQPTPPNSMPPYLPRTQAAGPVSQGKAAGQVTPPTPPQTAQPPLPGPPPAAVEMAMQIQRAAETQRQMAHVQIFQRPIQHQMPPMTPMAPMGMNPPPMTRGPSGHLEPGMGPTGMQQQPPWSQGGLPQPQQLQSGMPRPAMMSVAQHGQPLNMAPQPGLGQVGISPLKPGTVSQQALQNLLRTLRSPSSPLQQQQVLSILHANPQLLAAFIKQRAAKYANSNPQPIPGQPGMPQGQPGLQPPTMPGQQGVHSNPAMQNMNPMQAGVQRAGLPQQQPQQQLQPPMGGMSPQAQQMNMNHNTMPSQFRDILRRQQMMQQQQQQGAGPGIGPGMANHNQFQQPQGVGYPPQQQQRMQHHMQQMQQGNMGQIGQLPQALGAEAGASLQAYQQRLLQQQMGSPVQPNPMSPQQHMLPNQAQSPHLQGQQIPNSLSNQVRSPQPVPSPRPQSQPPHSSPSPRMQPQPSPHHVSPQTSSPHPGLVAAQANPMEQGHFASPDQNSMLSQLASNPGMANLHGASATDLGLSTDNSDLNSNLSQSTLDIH
UniProt Q13547: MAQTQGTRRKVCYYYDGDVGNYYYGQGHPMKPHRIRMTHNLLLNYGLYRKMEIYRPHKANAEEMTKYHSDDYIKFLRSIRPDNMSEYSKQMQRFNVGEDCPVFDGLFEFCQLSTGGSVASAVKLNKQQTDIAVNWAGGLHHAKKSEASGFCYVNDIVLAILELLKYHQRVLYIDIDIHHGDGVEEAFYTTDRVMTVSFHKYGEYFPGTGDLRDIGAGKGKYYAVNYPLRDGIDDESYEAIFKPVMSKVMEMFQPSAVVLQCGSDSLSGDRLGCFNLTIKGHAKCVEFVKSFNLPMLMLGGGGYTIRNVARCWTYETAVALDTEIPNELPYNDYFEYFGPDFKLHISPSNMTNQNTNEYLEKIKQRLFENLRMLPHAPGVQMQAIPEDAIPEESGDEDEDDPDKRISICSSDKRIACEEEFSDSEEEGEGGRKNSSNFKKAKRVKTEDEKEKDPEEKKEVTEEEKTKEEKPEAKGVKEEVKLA

These are yes or no findings as the source states them, for the method shown. Binding seen in cells or lysates may run through a third protein. Some entries that bind do so weakly or less than the wild type. For some of these results: Tags and fused reporters may be left off the sequences shown.

One test deals with T1, Flag-CHES1 wild type (UniProt O00409).
T1 sequence: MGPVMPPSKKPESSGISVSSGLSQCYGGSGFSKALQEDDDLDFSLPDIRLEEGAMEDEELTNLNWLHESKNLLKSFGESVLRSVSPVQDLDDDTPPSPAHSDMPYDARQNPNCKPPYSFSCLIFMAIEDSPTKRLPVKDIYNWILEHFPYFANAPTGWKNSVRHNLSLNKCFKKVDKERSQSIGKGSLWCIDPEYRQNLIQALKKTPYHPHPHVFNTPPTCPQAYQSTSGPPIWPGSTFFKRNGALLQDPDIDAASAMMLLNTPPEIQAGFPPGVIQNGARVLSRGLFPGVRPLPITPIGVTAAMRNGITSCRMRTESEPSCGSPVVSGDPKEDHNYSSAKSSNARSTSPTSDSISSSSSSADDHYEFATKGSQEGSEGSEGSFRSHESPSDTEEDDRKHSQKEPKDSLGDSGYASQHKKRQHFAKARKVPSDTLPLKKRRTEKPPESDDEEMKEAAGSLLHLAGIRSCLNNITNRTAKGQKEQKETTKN
The experiment in a line: co-IP; exogenous CHES1 WT or KR mutant precipitated from cell lysate, p300 detected by blot; cell line not stated.

The target in test [1] is T2, Checkpoint suppressor 1 (CHES1), endogenous (human (endogenous in MDA-MB-231, BT549, MCF7)) (UniProt O00409).
T2 sequence: T1 sequence
The experiment in a line: co-IP; endogenous proteins in lysate of MCF7 cells (ERα+); Protein A&G magnetic beads.

Test [2] deals with T2, Checkpoint suppressor 1 (CHES1), endogenous (human (endogenous in MDA-MB-231, BT549, MCF7)). The experiment in a line: co-IP; endogenous proteins in lysates of TNBC cells (Fig. 5E: MDA-MB-231); Protein A&G magnetic beads.

As for “p300 (in the co-IP with Flag-CHES1 WT and KR) (from UniProt Q09472 1-2414) (enzyme)”, the binding result with Flag-CHES1 wild type is on record as “binds”.

Consider “HDAC1, endogenous (from UniProt Q13547 1-482) (enzyme)”, for which the binding entry was “binds” in test [1] and “no binding (condition: in TNBC cells (MDA-MB-231))” in test [2].

For “p300, endogenous (from UniProt Q09472 1-2414) (enzyme)”, the binding result in test [2] is “binds”.
